Data as given in PubChem BioAssay AID602196 (INSERM, 2012).
This is a random part of about 23,000 deposited reagents. Over the whole deposit, 455 (2%) are marked active. 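Active includes both protection and sensitisation; some change values fall well beyond the stated -50 to +50 range.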 Unmarked entries are inactive. Reagent sequences are not shown. The record does not give: the amount of reagent.

- Screen: 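Knock-downs that protect lung cancer cells from cisplatin or sensitise them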
- Cells: human A549 lung cancer cells
- Reagent: siRNA pair against human genes
- Duration: 48 h transfection before cisplatin; time from cisplatin to read-out not stated
- Conditions: cisplatin at a dose killing half of control-siRNA cells; exact dose and duration not given
- Detection: 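Cisplatin cell death as a shift from the 50% death seen with control siRNA; siRNAs toxic or growth-blocking alone scored 0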
- Reading the numbers: two-siRNA summed score (-2 to +2): higher = both siRNAs protect from cisplatin killing; -2 means both sensitise; mean protection from cisplatin (shift in death) and protection from cisplatin (shift in death), siRNA C and protection from cisplatin (shift in death), siRNA D: higher = protection from cisplatin killing
- Active means: 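siRNAs harmful alone (LDH or WST-1) get 0; others get +1 for less and -1 for more cisplatin killing; genes are active when the two siRNAs give the same sign, summing to ±2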
- Meaning of the calls: active = both siRNAs shift cisplatin killing the same way; inactive = no consistent shift, or siRNA harmful alone

gene knocked down | two-siRNA summed score (-2 to +2) | mean protection from cisplatin (shift in death) (%) | protection from cisplatin (shift in death), siRNA C (%) | protection from cisplatin (shift in death), siRNA D (%)
LOC391405 (retired record) | 1 | 19.3 | 26.8 | 11.8
BNIPL | 0 | 4.7 | 7.5 | 1.8
LOC441125 | 0 | 11.5 | 17 | 6.1
LOC442624 | 0 | 10.3 | 15.2 | 5.5
ADSL | 1 | 3.6 | 12.3 | -5.1
PDGFRL | 0 | 9.9 | -9.7 | 29.6
ZNF19 | 0 | -1.7 | -3 | -0.4
UCN3 | 0 | 3.2 | 8.4 | -2
OR5M11 | 0 | -6.3 | -12.7 | 0.2
DHRS4 | 0 | -6.4 | -9.6 | -3.2
CNN3 | 0 | 3.2 | 17 | -10.6
IDI2-AS1 | 0 | 4.3 | 5.3 | 3.3
KRABD5 | 0 | 1.2 | 1 | 1.5
PPP1R9B | 0 | 6.8 | 3.8 | 9.8
ABCC6 | 0 | -6.2 | 5.2 | -17.6
ALX3 | 0 | 12.1 | 12.5 | 11.7
PRAMEF1 | 0 | -1.2 | -13 | 10.6
LOC392979 | 0 | 10.2 | 14.8 | 5.7
ABI3 | 0 | -5.7 | -3.9 | -7.5
PARP12 | -1 | -8.3 | -23.5 | 6.8
KGD4 | 0 | 0.2 | -5.7 | 6
LOC440585 | 0 | 9.7 | 19 | 0.4
KIAA1613 | 0 | -19.4 | -27.1 | -11.7

Records above whose target name begins with K or k:
gene knocked down | two-siRNA summed score (-2 to +2) | mean protection from cisplatin (shift in death) (%) | protection from cisplatin (shift in death), siRNA C (%) | protection from cisplatin (shift in death), siRNA D (%)
KRABD5 | 0 | 1.2 | 1 | 1.5
KGD4 | 0 | 0.2 | -5.7 | 6
KIAA1613 | 0 | -19.4 | -27.1 | -11.7
